# Results published in the supplement of paper PMC8732350.
# Where a name gives a salt, the structure may show the parent alone. ± gives the standard deviation of the averaged measurements. The list shows a part of the results. Single values are uncertain here, since repeats match poorly.
# Test system: A549
# Assay: surface PD-L1 immunofluorescence intensity relative to IFN-gamma-only control (ratio); higher = more PD-L1 expression
# Details: 10 µM; exposure time 24 h; IFN-gamma 100 ng/mL
row,Structure (SMILES),surface PD-L1 immunofluorescence intensity
1,CCN(CC)CCCCN1c2ccccc2Oc2ccc(Cl)cc21 [10-DEBC hydrochloride],0.864
2,CCCC(=O)OCOC(=O)C1=C(C)NC(C)=C(C(=O)OC)C1c1cccc(Cl)c1Cl (stereo unspecified) [Cleviprex (Clevidipine)],1.16
3,FC(F)(F)c1cccc(-c2noc(-c3cc(-c4ccccc4)c(C(F)(F)F)s3)n2)c1,0.854
4,CN1CCC(OC(c2ccccc2)c2ccccc2)CC1 [Diphenylpyraline hydrochloride],1.07
5,CCOC(=O)[C@H](CCc1ccccc1)N[C@@H](C)C(=O)N1Cc2cc(OC)c(OC)cc2C[C@H]1C(=O)O [Moexipril HCl],1.16
6,CCOC(=O)[C@H](CCc1ccccc1)N[C@@H](C)C(=O)N1Cc2cc(OC)c(OC)cc2C[C@H]1C(=O)O [Moexipril hydrochloride],0.955
7,C/C=C1\[C@H]2C=C(C)C[C@]1(N)c1ccc(=O)[nH]c1C2 [(-)-Huperzine A],1.07
8,Clc1ccc(Nc2nnc(Cc3ccncc3)c3ccccc23)cc1 [Vatalanib],1.13
9,Clc1ccc(Nc2nnc(Cc3ccncc3)c3ccccc23)cc1 [Vatalanib dihydrochloride (PTK787)],0.957
10,Cn1cc(-c2ccc3nnc(Sc4ccc5ncccc5c4)n3n2)cn1,0.907
11,O=C1NC(=O)/C(=C/c2cccc(C(F)(F)F)c2)S1,1.03 ± 0.093
12,COC(=O)c1ccc2c(C(=Nc3ccc(N(C)C(=O)CN4CCN(C)CC4)cc3)c3ccccc3)c(O)[nH]c2c1 [BIBF1120 (Vargatef)],1.1
13,Cc1cc2c(F)c(Oc3ncnn4cc(OC[C@@H](C)O)c(C)c34)ccc2[nH]1,0.983 ± 0.02
14,COc1cc(/C=C/C(=O)CC(=O)/C=C/c2ccc(O)c(OC)c2)ccc1O [Curcumin],0.967 ± 0.046
15,CCCCCCN(CCCCCC)C(=O)Cc1c(-c2ccc(Cl)cc2)[nH]c2ccc(Cl)cc12,1.04
16,O=C1c2cccc3c2[C@H](CCC3)CN1[C@@H]1CN2CCC1CC2 [Palonosetron HCl],0.941
17,NCC[C@H](O)C(=O)N[C@@H]1C[C@H](N)[C@@H](O[C@H]2O[C@H](CN)[C@@H](O)[C@H](O)[C@H]2O)[C@H](O)[C@H]1O[C@H]1O[C@H](CO)[C@@H](O)[C@H](N)[C@H]1O [Amikacin hydrate],0.958 ± 0.015
18,NCC[C@H](O)C(=O)N[C@@H]1C[C@H](N)[C@@H](O[C@H]2O[C@H](CN)[C@@H](O)[C@H](O)[C@H]2O)[C@H](O)[C@H]1O[C@H]1O[C@H](CO)[C@@H](O)[C@H](N)[C@H]1O [Amikacin sulfate],0.963
19,O=C1CCC(N2C(=O)c3ccccc3C2=O)C(=O)N1 (stereo unspecified) [Thalidomide],0.915 ± 0.061
20,CCN(CC)CCNC(=O)COc1ccc(OC)cc1 [Mefexamide hydrochloride],1.01
21,Cc1nc2n(c(=O)c1CCN1CCC(c3noc4cc(F)ccc34)CC1)CCCC2O (stereo unspecified) [Paliperidone (Invega)],0.996
22,CC(=O)OCC1=C(C(=O)O)N2C(=O)[C@@H](NC(=O)Cc3cccs3)[C@H]2SC1 [Cephalothin sodium salt],0.884
23,Clc1ccc(C(Cn2ccnc2)OCc2csc3c(Cl)cccc23)c(Cl)c1 (stereo unspecified) [Sertaconazole nitrate],1.03
24,O=C(Nc1cccc2cccnc12)c1ccc(N2C(=O)[C@@H]3[C@H](C2=O)[C@@H]2C=C[C@H]3C2)cc1 [endo-IWR 1],1.02

row,Structure (SMILES),surface PD-L1 immunofluorescence intensity
1,CC1(C)S[C@@H]2[C@H](NC(=O)Cc3ccccc3)C(=O)N2[C@H]1C(=O)O [Benzylpenicillin sodium],1.04
2,CC1(C)S[C@@H]2[C@H](NC(=O)Cc3ccccc3)C(=O)N2[C@H]1C(=O)O [Benzathine benzylpenicillin],1.02
3,CCCCc1nc(Cl)c(CO)n1Cc1ccc(-c2ccccc2-c2nnn[nH]2)cc1 [Losartan],1.06
4,O=C(O)CCNC(=O)c1ccc(/N=N/c2ccc(O)c(C(=O)O)c2)cc1 [Balsalazide Sodium],1.02
5,C[n+]1ccccc1/C=N/O [Pralidoxime chloride],0.922
6,CCOc1cc(N)c(Cl)cc1C(=O)NCC1CN(Cc2ccc(F)cc2)CCO1 (stereo unspecified) [Mosapride citrate],1.01
7,Cc1cccc(Nc2ccccc2C(=O)O)c1C [Mefenamic acid],0.867
8,CCC(C)n1ncn(-c2ccc(N3CCN(c4ccc(OCC5COC(Cn6cncn6)(c6ccc(Cl)cc6Cl)O5)cc4)CC3)cc2)c1=O (stereo unspecified) [Itraconazole (Sporanox)],0.96
9,CCC(C)n1ncn(-c2ccc(N3CCN(c4ccc(OCC5COC(Cn6cncn6)(c6ccc(Cl)cc6Cl)O5)cc4)CC3)cc2)c1=O (stereo unspecified) [Itraconazole],0.981
10,CN(CCOc1ccc(C[C@H](Nc2ccccc2C(=O)c2ccccc2)C(=O)O)cc1)c1ccccn1,0.99
11,C[C@H]1[C@H](OC(=O)CCC(=O)O)O[C@@H]2O[C@@]3(C)CC[C@H]4[C@H](C)CC[C@@H]1[C@@]24OO3 [Artesunate],1.18
12,O=C1OC(CN2CCOCC2)CN1/N=C/c1ccc([N+](=O)[O-])o1 (stereo unspecified) [Furaltadone hydrochloride],1.1
13,O=C1c2c(O)cc(O)cc2O[C@H](c2cc(O)c(O)c(O)c2)[C@H]1O [Dihydromyricetin (Ampeloptin)],1.1
14,Cc1ccc(-c2c(-c3nn(C)c4ncnc(N5CC[C@H](N6CCCCC6)C5)c34)cnn2C)cc1,0.945
15,CNCCCN1c2ccccc2CCc2ccccc21 [Desipramine hydrochloride],1.12
16,Cn1c(=O)c2c(ncn2CCO)n(C)c1=O [Etofylline],0.996
17,COC(C)(C)CCCC(C)C/C=C/C(C)=C/C(=O)O (stereo unspecified) [Methoprene acid],1.08
18,C[C@@]1(c2cc(-c3cncnc3)c(F)cc2F)CCSC(N)=N1,1.12
19,"CC(C)NCC(O)c1cc(O)cc(O)c1 (stereo unspecified) [Metaproterenol sulfate, orciprenaline sulfate]",0.996
20,CC(C(=O)Nc1cccc(/N=C/c2c(O)ccc3ccccc23)c1)c1ccccc1 (stereo unspecified) [Salermide],1.05
21,O=[N+]([O-])c1cc2nc(O)c(O)nc2cc1[N+](=O)[O-],1.01
22,CCCCCCCCCCCCCCSCC(=O)O [Tetradecylthioacetic acid],1.02
23,O=C(O)CN(CCN(CC(=O)O)CC(=O)O)CCN(CC(=O)O)CC(=O)O [Pentetic acid],1.05
24,CC(C)(CO)Cc1cc(C(C)(C)C)c(O)c(C(C)(C)C)c1,1.06

# In a second layout: entries from further up
row | Structure (SMILES) | surface PD-L1 immunofluorescence intensity
17 | NCC[C@H](O)C(=O)N[C@@H]1C[C@H](N)[C@@H](O[C@H]2O[C@H](CN)[C@@H](O)[C@H](O)[C@H]2O)[C@H](O)[C@H]1O[C@H]1O[C@H](CO)[C@@H](O)[C@H](N)[C@H]1O [Amikacin hydrate] | 0.958 ± 0.015
18 | NCC[C@H](O)C(=O)N[C@@H]1C[C@H](N)[C@@H](O[C@H]2O[C@H](CN)[C@@H](O)[C@H](O)[C@H]2O)[C@H](O)[C@H]1O[C@H]1O[C@H](CO)[C@@H](O)[C@H](N)[C@H]1O [Amikacin sulfate] | 0.963
19 | O=C1CCC(N2C(=O)c3ccccc3C2=O)C(=O)N1 (stereo unspecified) [Thalidomide] | 0.915 ± 0.061
20 | CCN(CC)CCNC(=O)COc1ccc(OC)cc1 [Mefexamide hydrochloride] | 1.01
21 | Cc1nc2n(c(=O)c1CCN1CCC(c3noc4cc(F)ccc34)CC1)CCCC2O (stereo unspecified) [Paliperidone (Invega)] | 0.996
22 | CC(=O)OCC1=C(C(=O)O)N2C(=O)[C@@H](NC(=O)Cc3cccs3)[C@H]2SC1 [Cephalothin sodium salt] | 0.884

# (further entries)

row,Structure (SMILES),surface PD-L1 immunofluorescence intensity
1,CCc1cc2c(c(CC)n1)CCC(=O)N2Cc1ccc(-c2ccccc2-c2nn[nH]n2)cc1 [ZD 7155 hydrochloride],1.08
2,O=C(/C=C/C=C/c1ccc2c(c1)OCO2)N1CCCCC1 [Piperine (1-Piperoylpiperidine)],1.1
3,O=c1c2ccccc2nc2n1CCc1c-2[nH]c2ccccc12 [Rutaecarpine (Rutecarpine)],1.15
4,CN(C)c1ccccc1CN1CCCN(Cc2ccccc2N(C)C)C1c1ccncc1,0.957
5,OC[C@H]1O[C@@H](n2cnc3c2N=CNC[C@H]3O)C[C@@H]1O [Pentostatin],0.961
6,CCC(=O)OCC(=O)[C@@]1(OC(=O)CC)[C@@H](C)C[C@H]2[C@@H]3CCC4=CC(=O)C=C[C@]4(C)[C@@]3(Cl)[C@@H](O)C[C@@]21C [Beclomethasone dipropionate],0.799
7,CCC(=O)OCC(=O)[C@@]1(OC(=O)CC)[C@@H](C)C[C@H]2[C@@H]3CCC4=CC(=O)C=C[C@]4(C)[C@@]3(Cl)[C@@H](O)C[C@@]21C [Beclomethasone dipropionate (Beclometasone dipropionate)],0.808
8,CC(C)=CCC/C(C)=C/CC/C(C)=C/CC/C(C)=C/CO [Geranylgeraniol],1.03
9,Oc1cc2c(c(Cl)c1O)CCNCC2c1ccccc1 (stereo unspecified),1.02
10,CCN(CC)Cc1cc(Nc2ccnc3cc(Cl)ccc23)ccc1O [Amodiaquin dihydrochloride dihydrate],1.04
11,COc1ccccc1N1CCN(CCCNc2cc(=O)n(C)c(=O)n2C)CC1 [Urapidil hydrochloride],0.97 ± 0.026
12,CN/C(=N\c1ccc(C2=NNC(=O)CC2C)cc1)NC#N (stereo unspecified) [Siguazodan],0.994
13,COc1nc(N)nc2c1ncn2[C@@H]1O[C@H](CO)[C@@H](O)[C@@H]1O [Nelarabine (Arranon)],0.992
14,OC[C@H]1O[C@H](O[C@H]2O[C@H](CO)[C@@H](O)[C@H](O)[C@H]2O)[C@H](O)[C@@H](O)[C@@H]1O [Trehalose],0.963
15,"CCN(CC)CCOc1ccc(C(=C(Cl)c2ccccc2)c2ccccc2)cc1 [Clomiphene citrate (Z,E)]",1
16,CN(C)[C@@H]1C(O)=C(C(=O)NCNCCCC[C@H](N)C(=O)O)C(=O)[C@@]2(O)C(O)=C3C(=O)c4c(O)cccc4[C@@](C)(O)[C@H]3C[C@@H]12 [Lymecycline],1.02
17,CCCCCOC(=O)Nc1nc(=O)n([C@@H]2O[C@H](C)[C@@H](O)[C@H]2O)cc1F [Capecitabine (Xeloda)],1.12
18,CN1CCOC(c2ccccc2)c2ccccc2C1 (stereo unspecified) [Nefopam hydrochloride],1.05
19,CN1CCC(=C2c3ccccc3CCc3sccc32)CC1 [Pizotifen malate],0.944
20,Cc1cnc(C(=O)NCCc2ccc(S(=O)(=O)NC(=O)NC3CCCCC3)cc2)cn1 [Glipizide],0.967
21,O=C(Cc1ccccc1)Nc1nc2ccc(Cl)cc2c2nc(-c3ccco3)nn12,0.99
22,CC(C)NC[C@H](O)COc1cccc2[nH]ccc12 [(S)-(-)-Pindolol],0.995
23,c1cc2c3c(c1)c1c(n3CCNC2)CCCC1 [WAY 629 hydrochloride],1.01
